Experimental data: PubChem BioAssay AID270 (DTP/NCI, 2004)
The list shows only some results of the screen, not a fair sample: it is rich in T/C values a quarter to a half above the control, in often repeated tests (any T/C) and in doses without a T/C. Further doses and runs are listed elsewhere. T/C is the treated group as % of the vehicle group. Schedules are NCI's codes, read here as Q, the interval in days (D) or hours (H), X, the number of doses. Some T/C values are followed by the survivors on the day toxicity was checked, most often the fifth; without a count, all were alive then. Some doses have a count of surviving animals in place of a T/C: the source files T/C as zero there, which appears to mark a toxic dose or a test without result, not a measured value. Some survivor counts are full or nearly so, which does not show that the dose was tolerated: the source hardly ever lists a survival T/C far under the control, and the zero likely stands for such cases as well. Counts of survivors are from the toxicity check (mostly the fifth day) where no day follows; animals may have died later. Some entries were tested several times; their values stand side by side, smallest first. For survival time, the PubChem record calls one and a half times the control and up active, and a quarter to a half above the control has no call in these data; cut-offs in other NCI protocols can differ. Counts like (3×) give the number of equal values in this list. *1 amine or outer side, *2 acyl side, *3 side chain or, on linkers, in order; H or OH if unused. Where a SMILES comes first, the peptide text is derived from it. Bridges are numbered along the chain shown (N, C = ends). Roman numbers before positions name the chains, in order. [ ]: non-standard residue; d: D form. Actinocin(1to9) = Cc1c2oc3c(C)ccc(C(=O)[*:2])c3nc-2c(C(=O)[*:1])c(N)c1=O; X1 = O=C1CC(C(=O)[*:2])N([*:1])C1; NMeV = CN[CH](C(=O)O)C(C)C; Sar = CNCC(=O)O

Tested on: BDF1 mice, s.c. Lewis lung carcinoma, T/C %
Assay: NCI In Vivo Anticancer Drug Screen. Data for tumor model Lewis Lung Carcinoma (subcutaneous) in B6D2F1 (BDF1) mice
How it was run: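 Transplanted tumors grown in mice; compound vs vehicle dosing; endpoint survival or tumor size; ratio T/C.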

[1] = T/C endpoint: median survival time, dose: 50.0 mg/kg/injection, schedule: Q01DX009 (ip), vehicle: Klucel (hydroxypropylcellulose) (HPC), higher T/C = longer survival
[2] = T/C endpoint: median survival time, dose: 400.0 mg/kg/injection, schedule: Q01DX009 (ip), vehicle: Klucel (hydroxypropylcellulose) (HPC), higher T/C = longer survival
[3] = T/C endpoint: median survival time, dose: 400.0 mg/kg/injection, schedule: Q01DX009 (ip), vehicle: saline, higher T/C = longer survival
[4] = T/C endpoint: median survival time, dose: 800.0 mg/kg/injection, schedule: Q01DX009 (ip), vehicle: saline, higher T/C = longer survival

Cc1cc(N)c2cc(NC(=O)CCCCCCCCC(=O)Nc3ccc4nc(C)cc(N)c4c3)ccc2n1
T/C (T/C endpoint: mean tumor weight, dose: 25.0 mg/kg/injection, schedule: Q01DX011 (ip), vehicle: other, evaluated on day 12, higher T/C = larger tumour): 130 % of control
survivor count (T/C endpoint: median survival time, dose: 0.38 mg/kg/injection, schedule: Q01DX009 (ip), vehicle: Klucel (hydroxypropylcellulose) (HPC), higher T/C = longer survival): 9 of 10
survivor count (T/C endpoint: median survival time, dose: 1.56 mg/kg/injection, schedule: Q01DX009 (ip), vehicle: Klucel (hydroxypropylcellulose) (HPC), higher T/C = longer survival): 10 of 10
survivor count [1]: 10 of 10
survivor count (T/C endpoint: median survival time, dose: 200.0 mg/kg/injection, schedule: Q01DX009 (ip), vehicle: Klucel (hydroxypropylcellulose) (HPC), higher T/C = longer survival): 1 of 10
survivor count [2]: 0 of 10

CC(=O)C(O)N1C(=O)C=CC1=O (centres undefined)
T/C (T/C endpoint: median survival time, dose: 0.62 mg/kg/injection, schedule: Q02DX009 (ip), vehicle: saline, higher T/C = longer survival): 131 % of control
T/C (T/C endpoint: median survival time, dose: 2.5 mg/kg/injection, schedule: Q01DX009 (ip), vehicle: saline, higher T/C = longer survival): 141 % of control
survivor count (T/C endpoint: median survival time, dose: 10.0 mg/kg/injection, schedule: Q01DX009 (ip), vehicle: saline, higher T/C = longer survival): 6 of 10 and 7 of 10
survivor count (T/C endpoint: median survival time, dose: 10.0 mg/kg/injection, schedule: Q02DX009 (ip), vehicle: saline, higher T/C = longer survival): 10 of 10

COc1ccc(Nc2ccnc3cc(Cl)ccc23)cc1CN(CCCl)CCCl
survivor count (T/C endpoint: mean tumor weight, dose: 2.0 mg/kg/injection, schedule: Q01DX011 (ip), vehicle: other, higher T/C = larger tumour): 0 of 6
survivor count (T/C endpoint: mean tumor weight, dose: 4.0 mg/kg/injection, schedule: Q01DX011 (ip), vehicle: other, higher T/C = larger tumour): 0 of 6

COc1ccc([C@@H]2c3cc4c(cc3C[C@H]3COC(=O)[C@@H]32)OCO4)cc1OC
survivor count (T/C endpoint: median survival time, dose: 67.0 mg/kg/injection, schedule: Q01DX009 (ip), vehicle: saline with Tween-80, higher T/C = longer survival): 10 of 10

CC(=O)O[C@@H]1[C@H]2O[C@H]2[C@H]2O[C@@]2(COC(=O)c2ccccc2)[C@H]1OC(C)=O
T/C (T/C endpoint: mean tumor weight, dose: 250.0 mg/kg/injection, schedule: Q01DX011 (ip), vehicle: carboxymethylcellulose (CMC), evaluated on day 12, higher T/C = larger tumour): 142 % of control
T/C (T/C endpoint: mean tumor weight, dose: 400.0 mg/kg/injection, schedule: Q01DX011 (ip), vehicle: carboxymethylcellulose (CMC), evaluated on day 12, higher T/C = larger tumour): 142 % of control
survivor count (T/C endpoint: mean tumor weight, dose: 500.0 mg/kg/injection, schedule: Q01DX011 (ip), vehicle: carboxymethylcellulose (CMC), higher T/C = larger tumour): 2 of 4

CC1=CC2=C(C=O)C(=O)[C@](C)(O)[C@@H](O)C2=CO1
survivor count (T/C endpoint: median survival time, dose: 12.5 mg/kg/injection, schedule: Q01DX009 (ip), vehicle: saline with Tween-80, higher T/C = longer survival): 9 of 10
survivor count (T/C endpoint: median survival time, dose: 50.0 mg/kg/injection, schedule: Q01DX009 (ip), vehicle: saline with Tween-80, higher T/C = longer survival): 10 of 10
survivor count (T/C endpoint: median survival time, dose: 100.0 mg/kg/injection, schedule: Q01DX009 (ip), vehicle: saline with Tween-80, higher T/C = longer survival): 9 of 10

CCCC(Sc1nc(N)nc2nc[nH]c12)C(=O)O (centres undefined)
survivor count (T/C endpoint: mean tumor weight, dose: 960.0 mg/kg/injection, schedule: Q01DX011 (ip), vehicle: other, higher T/C = larger tumour): 0 of 6

COc1cc(O)c2c(c1)Cc1cc(C)cc(O)c1C2=O
T/C (T/C endpoint: median survival time, dose: 0.4 mg/kg/injection, schedule: Q01DX009 (ip), vehicle: saline with Tween-80, higher T/C = longer survival): 147 % of control
T/C (T/C endpoint: median survival time, dose: 0.8 mg/kg/injection, schedule: Q01DX009 (ip), vehicle: saline with Tween-80, higher T/C = longer survival): 138 % of control
T/C (T/C endpoint: median survival time, dose: 1.6 mg/kg/injection, schedule: Q01DX009 (ip), vehicle: saline with Tween-80, higher T/C = longer survival): 136 % of control
T/C (T/C endpoint: median survival time, dose: 3.12 mg/kg/injection, schedule: Q01DX009 (ip), vehicle: saline with Tween-80, higher T/C = longer survival): 137 % of control

COc1cc(C=Nc2ccc(-n3ccnc3C)cc2)ccc1N(CCCl)CCCl
survivor count (T/C endpoint: median survival time, dose: 20.0 mg/kg/injection, schedule: Q01DX009 (ip), vehicle: Klucel (hydroxypropylcellulose) (HPC), higher T/C = longer survival): 10 of 10

COC1=CC(=O)N(C(=O)C2CSC(C(CO)NC(=O)c3csc(/C=N/O)n3)=N2)C1 (centres undefined)
survivor count [2]: 10 of 10

C=C(C(=O)O)C(=O)O
survivor count [3]: 1 of 10

O=CNCCNC=O
T/C (T/C endpoint: mean tumor weight, dose: 222.0 mg/kg/injection, schedule: Q01DX011 (ip), vehicle: saline, evaluated on day 12, higher T/C = larger tumour): 140 % of control

Cc1c2oc3c(C)ccc(C(=O)NC4C(=O)NC(C(C)C)C(=O)N5CCCC5C(=O)N(C)CC(=O)N(C)C(C(C)C)C(=O)OC4C)c3nc-2c(C(=O)NC2C(=O)NC(C(C)C)C(=O)N3CC(=O)CC3C(=O)N(C)CC(=O)N(C)C(C(C)C)C(=O)OC2C)c(N)c1=O (centres undefined) (I: TV[X1][Sar][NMeV] / II: TVP[Sar][NMeV]; ester I:1-I:C, II:1-II:C; linker I:N-II:N via Actinocin(1to9); configuration not given here)
survivor count (T/C endpoint: median survival time, dose: 25.0 micrograms/kg/injection, schedule: Q01DX009 (ip), vehicle: water, higher T/C = longer survival): 10 of 10
survivor count (T/C endpoint: median survival time, dose: 50.0 micrograms/kg/injection, schedule: Q01DX009 (ip), vehicle: water, higher T/C = longer survival): 8 of 10
survivor count (T/C endpoint: median survival time, dose: 75.0 micrograms/kg/injection, schedule: Q04DX003 (ip), vehicle: water, higher T/C = longer survival): 10 of 10
survivor count (T/C endpoint: median survival time, dose: 150.0 micrograms/kg/injection, schedule: Q04DX003 (ip), vehicle: water, higher T/C = longer survival): 10 of 10

CC(=O)OC(C)(C)/C=C/C(=O)[C@](C)(O)[C@H]1[C@H](O)C[C@@]2(C)[C@@H]3CC=C4[C@@H](C[C@H](O)C(=O)C4(C)C)[C@]3(C)C(=O)C[C@]12C
survivor count (T/C endpoint: mean tumor weight, dose: 0.57 mg/kg/injection, schedule: Q01DX011 (ip), vehicle: saline, higher T/C = larger tumour): 1 of 6 and 2 of 6
survivor count (T/C endpoint: mean tumor weight, dose: 0.8 mg/kg/injection, schedule: Q01DX011 (ip), vehicle: carboxymethylcellulose (CMC), higher T/C = larger tumour): 0 of 4
survivor count (T/C endpoint: mean tumor weight, dose: 0.86 mg/kg/injection, schedule: Q01DX011 (ip), vehicle: saline, higher T/C = larger tumour): 0 of 6
survivor count (T/C endpoint: mean tumor weight, dose: 1.3 mg/kg/injection, schedule: Q01DX011 (ip), vehicle: saline, higher T/C = larger tumour): 0 of 6
survivor count (T/C endpoint: mean tumor weight, dose: 1.6 mg/kg/injection, schedule: Q01DX011 (ip), vehicle: carboxymethylcellulose (CMC), higher T/C = larger tumour): 0 of 4
survivor count (T/C endpoint: mean tumor weight, dose: 2.0 mg/kg/injection, schedule: Q01DX011 (ip), vehicle: saline, higher T/C = larger tumour): 0 of 6

CCOC(=O)C1C(=O)C(CN(CCCl)CCCl)C(=O)C(C(=O)OCC)C1c1ccc(O)cc1 (centres undefined)
survivor count [1]: 9 of 10

CC(C)C[CH2][Pb]([Cl])([CH2]CC(C)C)[CH2]CC(C)C
T/C (T/C endpoint: median survival time, dose: 0.12 mg/kg/injection, schedule: Q01DX009 (ip), vehicle: Klucel (hydroxypropylcellulose) (HPC), higher T/C = longer survival): 125 % of control

Nc1n[nH]c(N)n1
T/C (T/C endpoint: median survival time, dose: 100.0 mg/kg/injection, schedule: Q01DX009 (ip), vehicle: saline, higher T/C = longer survival): 100 (2×), 108, 121 % of control
T/C (T/C endpoint: median survival time, dose: 200.0 mg/kg/injection, schedule: Q01DX009 (ip), vehicle: saline, higher T/C = longer survival): 96, 127, 130, 139 % of control
T/C [3]: 114, 120, 130, 157 % of control
T/C [4]: 114, 154, 155 % of control
survivor count [4]: 7 of 10

CCN(CC)C(=S)S
survivor count (T/C endpoint: mean tumor weight, dose: 1000.0 mg/kg/injection, schedule: Q01DX011 (ip), vehicle: saline, higher T/C = larger tumour): 1 of 6 and 2 of 7
survivor count (T/C endpoint: mean tumor weight, dose: 2000.0 mg/kg/injection, schedule: Q01DX011 (ip), vehicle: saline, higher T/C = larger tumour): 0 of 6
survivor count (T/C endpoint: median survival time, dose: 2000.0 mg/kg/injection, schedule: Q01DX011 (ip), vehicle: saline, higher T/C = longer survival): 0 of 10 on day 58

O=C1c2ccccc2CCc2ccccc21
T/C (T/C endpoint: mean tumor weight, dose: 300.0 mg/kg/injection, schedule: Q01DX011 (ip), vehicle: other, evaluated on day 12, higher T/C = larger tumour): 131 % of control [5 of 6 alive]
